Laboratory results as given in US9289415B2, “Treatment of cancer” (The Brigham and Women's Hospital, Inc., priority 2011, dated 2016).
“Also recorded” adds a separate entry of the source. For at least one compound, name, drawing or mass did not settle the structure. Some entries share one result that the patent states for a list of compounds.

How the values were obtained:
[1] = target: recombinant LSD1 (rLSD1) (Homo sapiens, UniProt O60341); test: MALDI-TOF mass spectrometry-based LSD1 demethylase assay on H3K4Me2 peptide; type: biochemical; settings: H3K4Me2 peptide substrate; for dose dependence of rLSD1 inhibition: 0 to 1000 μM; for inhibition of rLSD1 H3K4Me2 demethylase activity: 1 mM compound
Experimental: MALDI Mass Spectrometry (Matrix-Assisted Laser Desorption/Ionization Mass Spectroscopy)—Two microliters of the 100 μl demethylation reaction mixture was desalted by passing through a C18 ZipTip (Millipore). Prior to desalting, the ZipTips were activated and equilibrated using 10 μl of 50% acetonitrile/0.1% TFA (2×), followed by 10 μl of 0.1% trifluoroacetic acid (TFA) (3×). The reaction mixture was then loaded onto the activated ZipTips. The ZipTips were washed with 10 μl of 0.1% TFA (5×), and the bound material was eluted from the ZipTip using 2 μl of 70% acetonitrile containing 1 mg/ml α-cyano-4-hydroxycinnamic acid MALDI matrix and 0.1% TFA. The eluates were spotted onto a circle of open MALDI target areas to allow solvent evaporation and peptide/matrix cocrystallization. The samples were analyzed by a MALDI-TOF/TOF mass spectrometer (Ultraflex, Bruker Daltonics, Billerica, Mass.) at the PFPC core facility of Department of Pathology, Harvard Medical School.
(§1) Demethylase Assay—For a typical reaction, the volume of the reaction is 100 μl, in which either 6 μg bulk histone, or 3 ug nucleosome, or 3 μg of modified histone peptides were used as substrates. Substrate were incubated with […] purified recombinant LSD1 in the histone demethylase assay buffer 1 (50 mM Tris pH 8.5, 50 mM KCl, 5 mM MgCl2, 0.5% BSA, and 5% glycerol) from 30 min up to 4 hr at 37° C. Inhibitors were first pre-incubated with enzyme in reaction buffer without substrate for 20 mins, and then substrates were added to initiate the reaction. The demethylation of histone and nucleosome substrates was analyzed by SDS-PAGE/Western blotting using methylation-specific antibodies. The demethylation of histone peptides was analyzed either by formaldehyde dehydrogenase assay or by mass spectrometry.

[2] = target: rLSD1 (Homo sapiens, UniProt O60341); test: Formaldehyde dehydrogenase (FDH)-coupled LSD1 demethylation assay; type: biochemical
Experimental: as §1
Formaldehyde Dehydrogenase Assay—Formaldehyde formation of demethylation reactions was continuously monitored by a coupled spectrophotometric assay. LSD1 was first incubated in buffer containing 50 mM potassium phosphate, pH 7.2, 2 mM NAD+, and 0.1 U FDH (100 μl reaction volume) at 37° C. for 5 min without substrate. The demethylation-FDH-coupled reaction was initiated by the addition of the substrates. The absorbance at 340 nm was measured at each time point in a 0.5 min interval using Beckman DU640 spectrophotometer. Over a 6 min period, a kinetic software program automatically recorded the absorbance at each time point. Standard curves were obtained using various concentrations of formaldehyde diluted from 37% formaldehyde solution (Fisher Scientific, Pittsburgh, Pa.).

[3] = target: purified recombinant LSD1 (rLSD1) (Homo sapiens, UniProt O60341); test: LSD1 demethylase assay on bulk histones (Western blot, H3K4Me2 antibody); type: biochemical; settings: increasing amounts
[4] = target: T1, endogenous LSD1 (purified from HeLa cells as part of a CtBP complex) (Homo sapiens, UniProt O60341); test: Native LSD1 demethylase assay on nucleosomes; type: biochemical; settings: 3 uM
T1 construct: endogenous LSD1 (purified from HeLa cells as part of a CtBP complex); endogenous in cells; host or cells: HeLa

[5] = test system: SCN2A and synapasin1.1 promoters in HeLa cells; test: ChIP assay of H3K4Me2 and LSD1 at LSD1 target promoters; type: cell-based, human
Experimental: (§2) Cell Culture and Statin Treatment—HeLa-S stable cell lines transfected by either empty vector (MOCK) or pOZ-LSD1 expressing Flag-HA tagged LSD1 (Flag-LSD1) were maintained in Dulbecco's modified Eagle's medium with 10% fetal calf serum. At the time of treatment, cells were washed twice with PBS and incubated with vehicle, fluvastatin, lovastatin, simvastatin or pravastatin at the dose ranges from 2 to 10 μM. The cells were harvested for RNA and CHIP analyses after 24-hour or 72-hour incubation.
Chromatin Immunoprecipitation (ChIP) Analysis—ChIP assays were carried out using EZ ChIP Kit (Upstate, 17-371) according to manufacturer's instructions with modifications. Briefly, after treatment with 1% formaldehyde, cells were harvested and sonicated in the ChIP lysis buffer to produce soluble chromatin with average sizes between 300-1000 bp. The chromatin samples were pre-cleaned for 1 hour using salmon sperm DNA/protein-G agarose beads (Upstate). Rabbit anti-LSD1 (Upstate, 07-705), anti-H3K4Me2 (Upstate, 07-030), or control antibodies (Santa Cruz, sc2027) were used for each ChIP. The antibody-chromatin complexes were immunoprecipitated with salmon sperm DNA pre-absorbed protein-G agarose beads. […] Relative abundance of targets of interest was quantified by real-time PCR. […]

[6] = test system: LSD1 target genes (SCN2A, syn1.1, IL-6) in HeLa cells; test: Quantitative real-time RT-PCR of LSD1 target gene expression; type: cell-based, human; settings: for mRNA levels of SCN2A and syn1.1: 72 hours, 0, 2, 5 and 10 μmol/L
Experimental: as §2
Quantitative Real-time RT-PCR-Total mRNA was extracted from 2×10^6 cultured Hela cells using the RNEASY Mini Kit (Qiagen Sciences, Germantown, Md.). After DNase treatment, cDNA was synthesized from RNA with the First Strand cDNA Synthesis kit (Amersham, Buckinghamshire, UK). PCR amplification reactions were performed with CyberGreen reagent (Qiagen Sciences) for SYN1 and SCN2A. Primers used in RT-PCR were as follows: SYN1 forward (5′-[…]-3′) (SEQ. ID. NO: 5), reverse (5′-[…]-3′) (SEQ. ID. NO: 6); SCN2A forward (5′-[…]-3′) (SEQ. ID. NO: 7), reverse (5′-[…]-3′) (SEQ. ID. NO: 8). Gene expression of IL-6 and β-actin was detected by Taqman Gene Expression Assays (Applied Biosystems) using the ABI Prism 7000 Sequence Detection System. The primers for IL-6 and were purchased from Applied Biosystems. ΔΔCT method was used to determine mRNA levels. Target gene expression was normalized to β-actin levels.

[7] = target: T2, recombinant LSD2 (Homo sapiens, UniProt Q8NB78); test: MALDI-TOF mass spectrometry-based LSD2 demethylase assay on H3K4Me2 peptide; type: biochemical; settings: H3K4Me2 peptide substrate
T2 sequence (Q8NB78 1-822): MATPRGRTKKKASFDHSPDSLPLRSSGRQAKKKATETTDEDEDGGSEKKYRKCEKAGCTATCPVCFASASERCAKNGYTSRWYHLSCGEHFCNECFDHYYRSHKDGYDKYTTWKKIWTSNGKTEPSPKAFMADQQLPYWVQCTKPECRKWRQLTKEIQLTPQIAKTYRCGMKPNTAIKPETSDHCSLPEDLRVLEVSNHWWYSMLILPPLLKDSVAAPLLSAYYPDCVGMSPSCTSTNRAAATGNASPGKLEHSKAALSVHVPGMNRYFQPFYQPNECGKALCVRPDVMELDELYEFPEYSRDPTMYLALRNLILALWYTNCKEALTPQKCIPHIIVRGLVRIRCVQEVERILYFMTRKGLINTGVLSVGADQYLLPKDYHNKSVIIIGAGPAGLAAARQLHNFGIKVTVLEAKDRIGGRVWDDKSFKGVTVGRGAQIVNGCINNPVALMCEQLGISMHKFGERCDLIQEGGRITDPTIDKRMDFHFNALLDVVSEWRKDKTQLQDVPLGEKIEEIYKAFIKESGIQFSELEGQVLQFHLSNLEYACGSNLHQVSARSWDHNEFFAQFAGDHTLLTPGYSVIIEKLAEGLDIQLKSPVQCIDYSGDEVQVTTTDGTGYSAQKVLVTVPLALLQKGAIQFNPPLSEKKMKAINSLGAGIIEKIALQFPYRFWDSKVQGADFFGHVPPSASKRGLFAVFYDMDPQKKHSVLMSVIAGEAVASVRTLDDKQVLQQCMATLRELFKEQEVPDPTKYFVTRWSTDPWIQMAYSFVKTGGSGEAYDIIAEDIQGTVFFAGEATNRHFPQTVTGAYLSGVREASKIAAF

[8] = target: T3, purified recombinant LSD2 (rLSD2) (Homo sapiens, UniProt Q8NB78); test: LSD2 demethylase assay on bulk histones (Western blot, H3K4Me2 antibody); type: biochemical; settings: increasing amounts
T3 sequence (Q8NB78 1-822): T2 sequence (Q8NB78 1-822)

[9] = test system: Hela cells; test: Statin-induced cell death in Hela cells; type: cell-based, human; settings: 24 hours; for cell death observed: HeLa cells, 0, 1.25, 2.5, 5 or 10 μmol/L
[10] = test system: Suspension Hela cell (POZ); test: Sub-G1 apoptotic population by flow cytometry; type: cell-based, human; settings: for percentage of sub-G1 apoptotic cells: LSD1 or LSD2 over-expressed Hela cells vs MOCK and ΔLSD1 controls, 10 or 20 μmol/L, 24 hours; for subG1 (apoptotic) population: POZ cells with control vector or mutant LSD1, 24 hours
Experimental: Suspension Hela cell (POZ) were treated with control, fluvastatin, lovastatin or provastatin 0, 1.25, 2.5, 5 or 10 μmol/L for 24 hours. […] Representative Flow Cytometry represents the results of at least three independent experiments of HeLa cells. MOCK—transfected HeLa, ΔLSD1-transfected Hela, LS1 or LSD2 over-expressed Hela cell groups were treated for 24 hours with 10 μmol/L or 20 μmol/L of fluvastatin (F), lovastatin (L), or simvastatin (S). […] Representative histograph represents the results of at least three independent experiments.

[11] = FgLSD1 HeLa cells overexpressing LSD1, 72 hours, 10 μmol/L
[12] = mock control HeLa cells, 72 hours, 10 μmol/L

Compound	dose dependence of rLSD1 inhibition [1]	inhibition of rLSD1 H3K4Me2 demethylase activity [1]	expression of LSD1 target genes (syn1.1, IL-6) [6, 11]	mRNA levels of SCN2A and syn1.1 ([6]; HeLa cells)	expression of LSD1 target genes (syn1.1, IL-6) [6, 12]	cell death observed [9]	concentrations at which cell death was induced ([9]; Hela cells)	percentage of sub-G1 apoptotic cells [10]	subG1 (apoptotic) population [10]	other results
CC(C)n1c(/C=C/C(O)CC(O)CC(=O)O)c(-c2ccc(F)cc2)c2ccccc21 (stereo not drawn) [fluvastatin]	dose-dependent inhibition of LSD1 activity	completely inhibited rLSD1 activity	markedly blunted	significant increases	caused similar increases in syn1.1 expression	Up to 70%	2.5 to 5 µM	significantly decreased	induced a large subG1 population	effect on rLSD1 demethylase activity ([2]; 30 μM): dramatic decrease in activity; effect on rLSD1 demethylase activity ([2]; 1-10 μM): little effect; effect on rLSD1 demethylase activity ([2]; […]): almost complete inhibition; inhibition of LSD1 demethylase activity on bulk histones [3]: inhibited LSD1 demethylase activity on bulk histones in a dose dependent manner; inhibition of native LSD1 activity on nucleosomes [4]: almost complete; levels of LSD1 enzyme bound to the SCN2A and synapasin1.1 promoters [5]: did not change; change of target gene de-repression on addition of mevalonate ([6]; HeLa cells, 72 hours, 10 μmol/L, with vs without mevalonate): No significant changes; dose dependence of LSD2 inhibition ([7]; 0 to 1000 M): dose-dependent inhibition of LSD2 activity; inhibition of LSD2 demethylase activity on bulk histones [8]: inhibited LSD2 demethylase activity on bulk histones in a dose-dependent manner; subG1 population ([10]; cells overexpressing LSD1 and CTBP, compared with control vector and mutant LSD1): markedly decrease of subG1 population
CC[C@H](C)C(=O)O[C@H]1C[C@@H](C)C=C2C=C[C@H](C)[C@H](CC[C@@H]3C[C@@H](O)CC(=O)O3)[C@H]21 [lovastatin]						Up to 70%	2.5 to 5 µM			
CC[C@H](C)C(=O)O[C@H]1C[C@H](O)C=C2C=C[C@H](C)[C@H](CC[C@@H](O)C[C@@H](O)CC(=O)O)[C@H]21 [pravastatin]		cannot inhibit LSD1 and LSD2	did not affect expression	did not show an effect	did not affect expression				no apoptotic cells were detected; also recorded: smaller effect; also recorded: did not induce apoptosis	inhibition of rLSD1 H3K4Me2 demethylase activity ([1]; listed as Pravastatin): showed no effect; inhibition of LSD2 H3K4Me2 demethylase activity [7]: cannot inhibit LSD1 and LSD2; cell death ([9]; Hela cells, up to 10 μM): no significant cell death
CCC(C)(C)C(=O)O[C@H]1C[C@@H](C)C=C2C=C[C@H](C)[C@H](CC[C@@H]3C[C@@H](O)CC(=O)O3)[C@H]21 [simvastatin]	also inhibited LSD1 activity, although they required higher concentrations to achieve complete inhibition	reduced the LSD1-mediated conversion		significant increases				significantly decreased		
